{"source": "PubChem BioAssay AID1508588 (Peter MacCallum Cancer Centre, 2020)", "purpose": "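Genome-wide search for knock-downs that heighten vemurafenib action in melanoma cells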 (primary screen)", "cells": "human WM266.4 melanoma cells (BRAF V600 mutant)", "reagents": "siRNA pool against human genes, 40 nM", "timing": "96 h from transfection to read-out", "challenge": "vemurafenib 300 nM (about IC25), added 48 h after transfection, for 48 h; comparison arm got DMSO vehicle only", "measurement": "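Ratios to non-targeting siRNA for cell gain, counted as DAPI nuclei after minus before drug and averaged over two replicates, and for absorbance-read medium lactate per cell; both binned into fold-change classes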", "direction": "cell gain with vemurafenib: higher = more cell gain than with non-targeting siRNA; lactate per cell with vemurafenib: higher = more lactate made per cell", "hit rule": "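Enhancement is called by pairing each knock-down's vehicle-arm and drug-arm fold-change classes for viability or glycolysis; which class combinations qualify is not given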", "calls": "active = enhances vemurafenib effect; inactive = no enhancement seen", "note": "The deposit covers about 18,000 reagents; shown is a random part of them. Of all reagents, 790 (4.4%) got an active call. 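Calls rest on a combination of fold-change classes in drug and vehicle arms, not all shown here.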 Unmarked entries are inactive. Some reagents were tested in more than one well and are listed for each."}
{"Gene":"RAD21 (RAD21 cohesin complex component)","cell gain with vemurafenib":0.12,"lactate per cell with vemurafenib":0.6}
{"Gene":"TCF25 (TCF25 ribosome quality control complex subunit)","cell gain with vemurafenib":0.29,"lactate per cell with vemurafenib":1.42}
{"Gene":"DNAJB4 (DnaJ heat shock protein family (Hsp40) member B4)","cell gain with vemurafenib":0.67,"lactate per cell with vemurafenib":0.74}
{"Gene":"SERPINB6 (serpin family B member 6)","cell gain with vemurafenib":0.81,"lactate per cell with vemurafenib":0.78}
{"Gene":"H4C11 (H4 clustered histone 11)","cell gain with vemurafenib":1.32,"lactate per cell with vemurafenib":1.28}
{"Gene":"AVL9 (AVL9 cell migration associated)","cell gain with vemurafenib":0.13,"lactate per cell with vemurafenib":1.19}
{"Gene":"SLC22A10","cell gain with vemurafenib":0.79,"lactate per cell with vemurafenib":0.49}
{"Gene":"GAL3ST3 (galactose-3-O-sulfotransferase 3)","cell gain with vemurafenib":0.56,"lactate per cell with vemurafenib":1.27}
{"Gene":"SLC47A1","cell gain with vemurafenib":0.55,"lactate per cell with vemurafenib":0.84}
{"Gene":"ACSF3 (acyl-CoA synthetase family member 3)","cell gain with vemurafenib":"0.17 (active)","lactate per cell with vemurafenib":-0.16}
{"Gene":"CHI3L1 (chitinase 3 like 1)","cell gain with vemurafenib":"0.8 (active)","lactate per cell with vemurafenib":0.34}
{"Gene":"NMUR2 (neuromedin U receptor 2)","cell gain with vemurafenib":"-0.11 (active)","lactate per cell with vemurafenib":0.49}
{"Gene":"NMUR2 (neuromedin U receptor 2)","cell gain with vemurafenib":"-0.22 (active)","lactate per cell with vemurafenib":1.1}
{"Gene":"UGT8 (UDP glycosyltransferase 8)","cell gain with vemurafenib":0.95,"lactate per cell with vemurafenib":1.19}
{"Gene":"OR14K1 (olfactory receptor family 14 subfamily K member 1)","cell gain with vemurafenib":0.9,"lactate per cell with vemurafenib":0.33}
{"Gene":"PANX3 (pannexin 3)","cell gain with vemurafenib":0.59,"lactate per cell with vemurafenib":0.98}
{"Gene":"INTS12 (integrator complex subunit 12)","cell gain with vemurafenib":0.96,"lactate per cell with vemurafenib":0.77}
{"Gene":"IRX5 (iroquois homeobox 5)","cell gain with vemurafenib":1.15,"lactate per cell with vemurafenib":0.38}
{"Gene":"SCN3B (sodium voltage-gated channel beta subunit 3)","cell gain with vemurafenib":0.87,"lactate per cell with vemurafenib":0.56}
{"Gene":"MYH13 (myosin heavy chain 13)","cell gain with vemurafenib":0.57,"lactate per cell with vemurafenib":1.31}
{"Gene":"LANCL1 (LanC like glutathione S-transferase 1)","cell gain with vemurafenib":0.43,"lactate per cell with vemurafenib":1.23}
{"Gene":"SACK1D (scaffolding CK1 anchoring protein D)","cell gain with vemurafenib":0.59,"lactate per cell with vemurafenib":0.87}
{"Gene":"PRDM6 (PR/SET domain 6)","cell gain with vemurafenib":0.88,"lactate per cell with vemurafenib":1.21}
{"Gene":"GGT1 (gamma-glutamyltransferase 1)","cell gain with vemurafenib":0.47,"lactate per cell with vemurafenib":1.6}
{"Gene":"SPACA7 (sperm acrosome associated 7)","cell gain with vemurafenib":1.16,"lactate per cell with vemurafenib":0.64}
{"Gene":"TBX6 (T-box transcription factor 6)","cell gain with vemurafenib":0.73,"lactate per cell with vemurafenib":0.67}
{"Gene":"KLF10 (KLF transcription factor 10)","cell gain with vemurafenib":1.08,"lactate per cell with vemurafenib":0.84}
{"Gene":"ZNF10 (zinc finger protein 10)","cell gain with vemurafenib":0.91,"lactate per cell with vemurafenib":0.82}
{"Gene":"CIMAP2 (ciliary microtubule associated protein 2)","cell gain with vemurafenib":0.45,"lactate per cell with vemurafenib":1.73}
{"Gene":"STATH (statherin)","cell gain with vemurafenib":0.26,"lactate per cell with vemurafenib":2.62}
{"Gene":"ASPRV1 (aspartic peptidase retroviral like 1)","cell gain with vemurafenib":0.82,"lactate per cell with vemurafenib":1}
{"Gene":"DYM (dymeclin)","cell gain with vemurafenib":"0.62 (active)","lactate per cell with vemurafenib":0.48}
{"Gene":"ADIPOR1 (adiponectin receptor 1)","cell gain with vemurafenib":0.09,"lactate per cell with vemurafenib":0.34}
{"Gene":"LITAF (lipopolysaccharide induced TNF factor)","cell gain with vemurafenib":0.84,"lactate per cell with vemurafenib":0.77}
{"Gene":"GINS1 (GINS complex subunit 1)","cell gain with vemurafenib":0.68,"lactate per cell with vemurafenib":1.24}
{"Gene":"MEFV (MEFV innate immunity regulator, pyrin)","cell gain with vemurafenib":0.58,"lactate per cell with vemurafenib":0.74}
{"Gene":"ZNF483 (zinc finger protein 483)","cell gain with vemurafenib":0.65,"lactate per cell with vemurafenib":0.56}
{"Gene":"ZNF569 (zinc finger protein 569)","cell gain with vemurafenib":0.59,"lactate per cell with vemurafenib":1.18}
{"Gene":"CPXM2 (carboxypeptidase X, M14 family member 2)","cell gain with vemurafenib":0.85,"lactate per cell with vemurafenib":0.66}
{"Gene":"RAB34 (RAB34, member RAS oncogene family)","cell gain with vemurafenib":"0.47 (active)","lactate per cell with vemurafenib":0.24}
